Assay results reported in patent publication US20030171347A1, “Sigma receptor antagonists having anti-cocaine properties and uses thereof” (priority 1998, published 2003).
For some of these results: At least one compound was matched to its structure with a doubt left. Some results were stated once for a whole list of compounds, not compound by compound. Some compounds share one range, which may span the group rather than tell each member.

What was measured:
[1] = tested on: Male, Swiss Webster mice; experiment: Attenuation of cocaine-induced convulsions, systemic pre-treatment; conditions: pre-treatment before cocaine 60 mg/kg i.p.
[2] = tested on: Male, Swiss Webster mice; experiment: Dose response for the locomotor stimulatory effects of cocaine; assay type: in vivo; conditions: cocaine 0-20 mg/kg i.p., 30 min

| Compound | dose range across which cocaine-induced convulsions were virtually eliminated [1] | locomotor stimulatory effect [2] |
| --- | --- | --- |
| CN(CCc1cccc([N+](=O)[O-])c1)CCN1CCCC1 [YZ-027] | 0.01-30 mg/kg, i.p. |  |
| CN(CCc1ccccc1[N+](=O)[O-])CCN1CCCC1 [YZ-028] | 0.01-30 mg/kg, i.p. |  |
| CN(CCc1ccc([N+](=O)[O-])cc1)CCN1CCCC1 [YZ-029] | 0.01-30 mg/kg, i.p. |  |
| COC(=O)[C@H]1[C@@H](OC(=O)c2ccccc2)C[C@@H]2CC[C@H]1N2C [cocaine] |  | dose-dependent increase in the level of locomotor activity |
